Data published in the supplement of paper PMC10849652.
The list shows a part of the results.

Protein sequences, listed by entry. Tags and fused reporters are not part of them. Lines headed by an entry give the natural chain unless they say otherwise; changes in a name come on top.
UniProt Q6ZNJ1: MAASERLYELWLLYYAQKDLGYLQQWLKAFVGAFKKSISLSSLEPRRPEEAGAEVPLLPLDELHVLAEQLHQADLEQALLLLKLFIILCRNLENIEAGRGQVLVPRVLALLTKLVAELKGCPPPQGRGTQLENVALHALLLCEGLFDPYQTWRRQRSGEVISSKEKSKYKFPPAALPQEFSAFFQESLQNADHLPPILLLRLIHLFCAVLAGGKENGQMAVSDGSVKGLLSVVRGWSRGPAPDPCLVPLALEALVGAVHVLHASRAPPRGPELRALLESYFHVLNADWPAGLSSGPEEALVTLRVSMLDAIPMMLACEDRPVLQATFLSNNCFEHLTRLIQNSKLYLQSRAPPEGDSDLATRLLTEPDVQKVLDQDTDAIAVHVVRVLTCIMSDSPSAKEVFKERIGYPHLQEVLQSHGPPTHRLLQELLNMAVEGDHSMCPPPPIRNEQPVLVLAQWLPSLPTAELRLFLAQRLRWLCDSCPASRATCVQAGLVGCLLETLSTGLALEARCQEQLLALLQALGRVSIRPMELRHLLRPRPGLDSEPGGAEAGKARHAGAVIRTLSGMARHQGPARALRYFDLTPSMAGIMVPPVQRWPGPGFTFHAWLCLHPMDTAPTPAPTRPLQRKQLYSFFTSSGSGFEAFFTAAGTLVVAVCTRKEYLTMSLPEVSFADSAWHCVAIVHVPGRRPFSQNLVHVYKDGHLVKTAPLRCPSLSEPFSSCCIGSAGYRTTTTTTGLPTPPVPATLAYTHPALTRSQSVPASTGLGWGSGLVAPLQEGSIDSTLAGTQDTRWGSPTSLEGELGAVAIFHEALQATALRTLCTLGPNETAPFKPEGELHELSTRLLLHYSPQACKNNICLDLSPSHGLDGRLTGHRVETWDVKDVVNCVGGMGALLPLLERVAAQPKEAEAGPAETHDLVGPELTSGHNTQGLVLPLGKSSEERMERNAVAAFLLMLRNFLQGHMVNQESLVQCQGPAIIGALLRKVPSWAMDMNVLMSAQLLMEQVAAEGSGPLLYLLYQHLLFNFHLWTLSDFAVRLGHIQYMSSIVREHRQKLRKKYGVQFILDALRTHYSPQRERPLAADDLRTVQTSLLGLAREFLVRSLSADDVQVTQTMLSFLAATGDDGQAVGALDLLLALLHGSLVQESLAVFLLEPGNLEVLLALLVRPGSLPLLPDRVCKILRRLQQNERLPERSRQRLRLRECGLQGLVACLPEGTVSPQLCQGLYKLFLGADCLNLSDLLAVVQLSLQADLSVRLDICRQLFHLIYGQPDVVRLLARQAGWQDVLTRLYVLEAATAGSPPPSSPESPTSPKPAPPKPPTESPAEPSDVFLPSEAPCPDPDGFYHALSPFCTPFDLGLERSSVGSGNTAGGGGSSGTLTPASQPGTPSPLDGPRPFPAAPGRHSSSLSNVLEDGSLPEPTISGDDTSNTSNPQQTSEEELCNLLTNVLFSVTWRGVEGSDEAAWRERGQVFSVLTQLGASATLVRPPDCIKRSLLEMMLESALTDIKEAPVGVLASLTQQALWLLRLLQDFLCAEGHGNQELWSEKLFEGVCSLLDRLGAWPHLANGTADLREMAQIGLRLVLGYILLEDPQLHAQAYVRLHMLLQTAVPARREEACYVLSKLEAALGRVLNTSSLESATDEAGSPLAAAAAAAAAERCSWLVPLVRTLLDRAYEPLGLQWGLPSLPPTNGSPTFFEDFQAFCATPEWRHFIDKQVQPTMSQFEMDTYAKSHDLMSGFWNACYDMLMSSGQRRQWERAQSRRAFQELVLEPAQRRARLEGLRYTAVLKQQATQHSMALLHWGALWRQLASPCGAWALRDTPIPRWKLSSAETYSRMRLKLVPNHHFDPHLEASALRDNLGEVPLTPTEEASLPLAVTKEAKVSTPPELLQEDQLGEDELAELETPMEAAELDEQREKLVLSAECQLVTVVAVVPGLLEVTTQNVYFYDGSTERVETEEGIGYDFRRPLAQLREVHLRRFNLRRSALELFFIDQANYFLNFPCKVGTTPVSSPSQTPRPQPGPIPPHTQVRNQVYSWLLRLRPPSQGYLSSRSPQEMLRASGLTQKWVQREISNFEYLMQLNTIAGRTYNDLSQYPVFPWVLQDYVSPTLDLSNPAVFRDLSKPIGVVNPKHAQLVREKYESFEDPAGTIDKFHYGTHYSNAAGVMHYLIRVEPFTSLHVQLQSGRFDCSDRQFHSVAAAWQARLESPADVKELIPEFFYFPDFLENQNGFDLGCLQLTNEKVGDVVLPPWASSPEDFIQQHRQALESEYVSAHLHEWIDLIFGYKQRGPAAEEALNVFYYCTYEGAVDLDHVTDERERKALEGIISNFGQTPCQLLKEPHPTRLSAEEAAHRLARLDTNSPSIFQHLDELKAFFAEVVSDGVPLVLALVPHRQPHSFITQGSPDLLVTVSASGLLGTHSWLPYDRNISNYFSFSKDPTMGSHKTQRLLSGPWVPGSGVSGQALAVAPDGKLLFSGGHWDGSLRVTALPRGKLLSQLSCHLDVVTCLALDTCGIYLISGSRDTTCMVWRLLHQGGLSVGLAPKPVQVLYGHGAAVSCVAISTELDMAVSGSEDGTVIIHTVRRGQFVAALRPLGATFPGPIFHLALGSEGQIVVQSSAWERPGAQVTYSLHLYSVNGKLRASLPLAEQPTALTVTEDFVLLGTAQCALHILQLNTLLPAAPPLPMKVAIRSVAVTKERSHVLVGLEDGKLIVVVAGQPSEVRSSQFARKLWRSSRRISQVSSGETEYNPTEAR
UniProt Q9GZM8: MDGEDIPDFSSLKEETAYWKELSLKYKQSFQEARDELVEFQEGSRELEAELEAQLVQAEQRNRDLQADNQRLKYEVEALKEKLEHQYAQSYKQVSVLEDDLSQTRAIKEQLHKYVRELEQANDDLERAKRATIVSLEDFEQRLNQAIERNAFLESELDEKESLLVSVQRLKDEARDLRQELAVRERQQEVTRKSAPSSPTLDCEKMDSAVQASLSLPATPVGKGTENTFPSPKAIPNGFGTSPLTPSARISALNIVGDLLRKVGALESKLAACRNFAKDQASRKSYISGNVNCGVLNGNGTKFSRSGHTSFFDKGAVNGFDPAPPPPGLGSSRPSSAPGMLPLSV
UniProt Q6ZVX7: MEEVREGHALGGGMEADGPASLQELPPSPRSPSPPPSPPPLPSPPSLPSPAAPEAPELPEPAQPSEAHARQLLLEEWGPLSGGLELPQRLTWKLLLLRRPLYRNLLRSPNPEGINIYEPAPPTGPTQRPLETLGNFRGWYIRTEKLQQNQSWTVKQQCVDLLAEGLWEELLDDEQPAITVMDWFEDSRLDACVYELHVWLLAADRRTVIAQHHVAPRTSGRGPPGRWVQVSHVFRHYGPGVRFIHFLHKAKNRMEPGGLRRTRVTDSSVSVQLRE
UniProt O43677, whole entry, looked up: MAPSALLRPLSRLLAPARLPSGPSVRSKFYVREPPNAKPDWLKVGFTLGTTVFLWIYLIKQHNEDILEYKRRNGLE
UniProt Q96PY6: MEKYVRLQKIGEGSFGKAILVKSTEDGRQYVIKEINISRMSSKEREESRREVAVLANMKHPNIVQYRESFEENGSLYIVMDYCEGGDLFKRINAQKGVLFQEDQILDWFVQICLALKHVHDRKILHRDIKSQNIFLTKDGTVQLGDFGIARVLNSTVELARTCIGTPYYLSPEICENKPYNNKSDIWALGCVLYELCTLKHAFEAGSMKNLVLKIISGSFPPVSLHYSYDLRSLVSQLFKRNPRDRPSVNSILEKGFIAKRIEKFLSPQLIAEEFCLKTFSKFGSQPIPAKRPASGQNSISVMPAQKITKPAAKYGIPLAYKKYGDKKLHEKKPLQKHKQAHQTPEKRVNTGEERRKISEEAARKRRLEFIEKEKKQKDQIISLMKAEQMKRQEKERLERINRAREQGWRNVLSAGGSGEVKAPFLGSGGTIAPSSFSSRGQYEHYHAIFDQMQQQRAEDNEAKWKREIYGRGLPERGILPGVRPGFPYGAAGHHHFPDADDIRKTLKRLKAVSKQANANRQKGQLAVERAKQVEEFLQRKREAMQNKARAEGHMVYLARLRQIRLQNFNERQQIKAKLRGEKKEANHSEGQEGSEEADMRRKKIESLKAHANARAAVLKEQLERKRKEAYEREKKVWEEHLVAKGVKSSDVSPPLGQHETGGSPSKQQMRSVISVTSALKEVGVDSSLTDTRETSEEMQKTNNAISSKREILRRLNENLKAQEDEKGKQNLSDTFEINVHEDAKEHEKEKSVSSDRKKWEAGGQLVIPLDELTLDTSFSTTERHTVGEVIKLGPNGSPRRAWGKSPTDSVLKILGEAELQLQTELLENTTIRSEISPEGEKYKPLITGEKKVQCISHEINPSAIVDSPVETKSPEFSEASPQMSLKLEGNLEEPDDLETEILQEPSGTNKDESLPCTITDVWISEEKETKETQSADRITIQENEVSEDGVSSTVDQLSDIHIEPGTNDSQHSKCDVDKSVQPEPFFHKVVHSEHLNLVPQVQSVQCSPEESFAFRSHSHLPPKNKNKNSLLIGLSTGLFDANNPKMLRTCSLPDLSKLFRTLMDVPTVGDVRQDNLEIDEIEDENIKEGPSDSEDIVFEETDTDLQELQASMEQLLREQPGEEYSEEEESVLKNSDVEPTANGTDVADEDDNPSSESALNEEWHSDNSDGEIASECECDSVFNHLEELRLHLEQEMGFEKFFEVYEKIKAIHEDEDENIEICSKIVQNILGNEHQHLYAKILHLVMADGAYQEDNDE
UniProt Q92597: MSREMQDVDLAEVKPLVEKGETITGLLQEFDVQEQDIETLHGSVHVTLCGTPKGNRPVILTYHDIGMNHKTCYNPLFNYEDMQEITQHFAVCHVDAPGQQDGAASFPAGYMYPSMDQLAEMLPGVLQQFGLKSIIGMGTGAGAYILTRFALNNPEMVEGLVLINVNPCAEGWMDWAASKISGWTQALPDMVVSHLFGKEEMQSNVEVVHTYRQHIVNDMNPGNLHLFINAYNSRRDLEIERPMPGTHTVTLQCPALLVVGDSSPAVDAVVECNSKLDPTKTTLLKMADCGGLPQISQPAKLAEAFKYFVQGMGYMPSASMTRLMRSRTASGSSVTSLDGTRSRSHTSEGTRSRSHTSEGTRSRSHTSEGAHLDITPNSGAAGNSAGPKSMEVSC
NBDY, A0A0U1RRE5, UniProt A0A0U1RRE5, whole entry, looked up: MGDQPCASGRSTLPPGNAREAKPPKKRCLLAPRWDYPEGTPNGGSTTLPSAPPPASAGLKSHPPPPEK
UniProt Q13075: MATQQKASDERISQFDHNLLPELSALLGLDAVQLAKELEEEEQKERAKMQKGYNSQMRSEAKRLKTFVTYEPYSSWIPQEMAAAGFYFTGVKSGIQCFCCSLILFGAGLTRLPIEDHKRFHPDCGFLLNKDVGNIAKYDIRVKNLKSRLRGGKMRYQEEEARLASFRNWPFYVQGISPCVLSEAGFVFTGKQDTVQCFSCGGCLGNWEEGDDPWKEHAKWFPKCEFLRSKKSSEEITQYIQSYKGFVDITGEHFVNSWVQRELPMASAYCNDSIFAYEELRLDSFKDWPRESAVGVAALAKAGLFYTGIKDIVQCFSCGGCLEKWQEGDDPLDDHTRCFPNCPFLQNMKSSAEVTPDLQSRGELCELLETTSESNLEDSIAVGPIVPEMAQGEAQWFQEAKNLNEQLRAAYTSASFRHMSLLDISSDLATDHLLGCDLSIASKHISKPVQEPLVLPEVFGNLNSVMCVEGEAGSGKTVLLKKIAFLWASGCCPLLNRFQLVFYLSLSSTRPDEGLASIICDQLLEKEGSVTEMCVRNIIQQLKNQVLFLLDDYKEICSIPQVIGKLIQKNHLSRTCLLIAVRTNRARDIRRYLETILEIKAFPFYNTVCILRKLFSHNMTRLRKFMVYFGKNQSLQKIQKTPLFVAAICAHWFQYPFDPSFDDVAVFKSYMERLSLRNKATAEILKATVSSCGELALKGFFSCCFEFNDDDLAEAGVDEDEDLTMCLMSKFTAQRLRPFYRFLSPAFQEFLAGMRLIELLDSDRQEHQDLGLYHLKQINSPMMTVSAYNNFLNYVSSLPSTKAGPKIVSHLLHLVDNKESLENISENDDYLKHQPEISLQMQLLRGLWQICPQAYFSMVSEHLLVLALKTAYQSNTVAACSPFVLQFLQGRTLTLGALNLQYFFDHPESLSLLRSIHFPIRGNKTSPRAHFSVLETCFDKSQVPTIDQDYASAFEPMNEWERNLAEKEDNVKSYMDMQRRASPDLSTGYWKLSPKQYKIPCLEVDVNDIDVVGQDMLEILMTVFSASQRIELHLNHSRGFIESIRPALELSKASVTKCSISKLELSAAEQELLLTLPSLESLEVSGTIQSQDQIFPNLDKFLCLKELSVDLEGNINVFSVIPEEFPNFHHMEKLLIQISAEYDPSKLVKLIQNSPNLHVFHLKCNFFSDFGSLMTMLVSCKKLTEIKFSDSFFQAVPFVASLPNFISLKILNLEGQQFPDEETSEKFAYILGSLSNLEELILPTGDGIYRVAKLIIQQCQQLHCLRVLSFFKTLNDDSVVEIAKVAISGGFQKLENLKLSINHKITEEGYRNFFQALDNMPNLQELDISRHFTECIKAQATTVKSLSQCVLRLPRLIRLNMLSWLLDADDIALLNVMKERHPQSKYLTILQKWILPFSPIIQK

What was measured:
Assay in all cases: log2 fold change, soluble protein after heating vs DMSO (PISA); higher = thermal stabilisation; K562 cells, 10 uM, 30 min; active = over 0.2 and 3.5 SD of the protein, either way, in both replicates (recomputed)
[1] = compound: CC1=NC(=CC=C1)C2=C(N=C(N2)C(C)(C)C)C3=CC4=NC=CN=C4C=C3
How it was run: (§1)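 Soluble protein was defined as the supernatant after 21,000xg for 90 min. It came from K562 cells at 2×10^6 cells/mL given 10 μM compound for 30 min, heated in aliquots for 3 min across 48°C-58°C, pooled, and extracted in PBS with 0.5% NP-40 at 4°C, and was quantified by TMTpro 16plex LC-MS/MS with equalised channel sums. Thermal stability against control samples, from duplicates, is reported as log2 fold change.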

[2] = compound: CCCS(=O)(=O)Nc1ccc(F)c(C(=O)c2c[nH]c3ncc(-c4ccc(Cl)cc4)cc23)c1F [vemurafenib]
How it was run: as §1

[3] = compound: CCCc1cc(C)[nH]c(=O)c1CNC(=O)c1cc(-c2ccnc(N3CCN(C)CC3)c2)cc2c1cnn2C(C)C
How it was run: as §1

[4] = compound: CCN(CC)Cc1ccc2cc(COC(=O)Nc3ccc(C(=O)NO)cc3)ccc2c1 [givinostat]
How it was run: as §1

[5] = compound: CCN(CCCOc1ccc2c(Nc3cc(CC(=O)Nc4cccc(F)c4)[nH]n3)ncnc2c1)CCOP(=O)(O)O [barasertib]
How it was run: as §1

[6] = compound: CC[C@@H]1C(=O)N(C)c2cnc(Nc3ccc(C(=O)NC4CCN(C)CC4)cc3OC)nc2N1C1CCCC1
How it was run: as §1

[7] = compound: CC[C@H](C)N1C=C(C2=C(C=C(C=C21)C3=CN=C(C=C3)N4CCNCC4)C(=O)NCC5=C(C=C(NC5=O)C)C)C
How it was run: as §1

[8] = compound: CCn1cc(-c2ccnc3[nH]c(-c4cccc(CN(C)C)c4)cc23)c(-c2ccc(NC(=O)N(C)C)cc2)n1
How it was run: as §1

[9] = compound: CN(C)CC(=O)Nc1ccc2[nH]c(=O)c3ccccc3c2c1
How it was run: as §1

[10] = compound: CN1C2=C(C3=C1C(=O)N(N=C3)CC4=CC(=CC=C4)N)SC(=C2)S(=O)C
How it was run: as §1

[11] = compound: CN1CCC(CNc2ccc3ncc(-c4cccc(OC(F)(F)F)c4)n3n2)CC1
How it was run: as §1

[12] = compound: CC1=C(C=C(C=C1)NC(=O)C2=CC(=CC=C2)N(C)C)NC(=O)C3=CC=C(C=C3)O
How it was run: as §1

[13] = compound: CCn1c(C(=O)N(C2CC2)C2CC2)cc2c3c(ncn3C)c(Nc3cc(C)n(C)n3)nc21
How it was run: as §1

[14] = compound: CC1=C(C=C(C=C1)NC(=O)C2=CC(=CC=C2)C(C)(C)C#N)NC3=CC4=C(C=C3)N=CN(C4=O)C
How it was run: as §1

[15] = compound: CC1=CC=C(C=C1)SC2=C3C=C(SC3=CN=C2)C(=O)N
How it was run: as §1

[16] = compound: CCCCN(Cc1ccc(C(=O)NO)cc1)C(=O)Nc1ccccc1 [Nexturastat A]
How it was run: as §1

[17] = compound: CCCS(=O)(=O)Nc1ccc(F)c(C(=O)c2c[nH]c3ncc(Cl)cc23)c1F
How it was run: as §1

[18] = compound: CC[C@@H]1C(=O)N(C)c2cnc(Nc3ccc(C(=O)N[C@H]4CC[C@H](N5CCN(CC6CC6)CC5)CC4)cc3OC)nc2N1C(C)C [volasertib]
How it was run: as §1

[19] = compound: CC[C@H](C)[C@@H](C(=O)N[C@@H]([C@@H](C)O)C(=O)N[C@@H](CC(C)C)C(=O)[C@]1(CO1)C)NC(=O)[C@H]([C@@H](C)CC)N(C)C(=O)C [epoxomicin]
How it was run: as §1

[20] = compound: CN(CCOC1=CC=C(C=C1)C[C@H]2C(=O)NC(=O)S2)C3=CC=CC=N3 (racemic) [rosiglitazone]
How it was run: as §1

Measured: log2 fold change

NAP1L1 (UniProt B7Z9C2)
inactive: [1] 0.14 | [2] -0.304 | [3] -0.109 | [4] -0.053 | [5] -0.002 | [6] -0.118 | [7] -0.008 | [8] 0 | [9] -0.244 | [10] -0.053 | [11] -0.152

NBEAL2 (UniProt Q6ZNJ1)
inactive: [12] 0.04 | [1] -0.274 | [3] -0.035 | [4] 0.211 | [6] -0.03 | [13] -0.018 | [8] 0.05 | [11] -0.179

NDUFA7 (UniProt M0R0N0)
inactive: [14] -0.011 | [2] -0.195 | [4] 0.104 | [5] 0.052 | [9] -0.092

NDEL1 isoform 2 (UniProt Q9GZM8)
inactive: [12] 0.018 | [15] 0.041 | [16] 0.052 | [2] -0.014 | [17] -0.011 | [3] -0.099 | [4] -0.029 | [5] 0.059 | [6] -0.195 | [18] -0.022 | [7] -0.006 | [19] -0.007 | [13] 0.003 | [8] -0.02 | [9] -0.036 | [20] -0.035 | [10] -0.109 | [11] -0.059

NCCRP1 (UniProt Q6ZVX7)
inactive: [1] -0.025 | [16] -0.392 | [2] 0.237 | [3] -0.095 | [6] 0.223 | [19] 0.068 | [9] 0.452 | [10] 0.683

NCOA1 (UniProt Q15788)
inactive: [12] 0.02 | [16] -0.245 | [2] -0.061 | [3] -0.007 | [4] -0.023 | [5] 0.044 | [6] 0.002 | [7] 0.058 | [19] 0.053 | [13] -0.004 | [9] -0.041 | [20] 0.096 | [10] -0.033

NA, A0A494C071
active: [6] -1.54 | [11] -1.73
inactive: [1] 0.011 | [16] -0.081 | [2] -0.142 | [3] -0.159 | [5] 0.043 | [7] 0.38 | [19] -0.11 | [8] 0.189 | [9] -0.122 | [10] -0.028

NCAPH2 isoform 4 (UniProt Q6IBW4)
inactive: [1] 0.036 | [16] 0.155 | [3] 0.119 | [4] 0.091 | [6] -0.175 | [7] -0.119 | [19] 0.144 | [13] 0.053

NDUFC1 (UniProt O43677)
inactive: [16] -0.171 | [4] -0.004 | [6] 0.069 | [19] 0.215 | [13] -0.028

NEK1 isoform 3 (UniProt Q96PY6)
inactive: [12] -0.011 | [1] -0.072 | [2] 0.073 | [4] 0.049 | [13] -0.233 | [9] -0.076 | [10] 0

NCKAP5L (UniProt Q9HCH0)
inactive: [12] 0.011 | [15] 0.006 | [1] 0.161 | [2] -0.112 | [17] 0.366 | [3] -0.165 | [18] -0.206 | [9] 0.266 | [10] -0.162

NDRG1 (UniProt Q92597)
inactive: [15] 0.093 | [17] 0.015 | [4] 0.041 | [18] -0.07 | [13] -0.05

Random excerpt: two records from the list, in no set order.
NEK1 isoform 3 (UniProt Q96PY6)
inactive: [12] -0.011 | [1] -0.072 | [2] 0.073 | [4] 0.049 | [13] -0.233 | [9] -0.076 | [10] 0

NCKAP5L (UniProt Q9HCH0)
inactive: [12] 0.011 | [15] 0.006 | [1] 0.161 | [2] -0.112 | [17] 0.366 | [3] -0.165 | [18] -0.206 | [9] 0.266 | [10] -0.162

Later entries.

NDST2 (UniProt P52849)
inactive: [14] -0.125 | [12] 0.03 | [1] -0.031 | [16] -0.019 | [2] -0.009 | [3] 0.026 | [4] 0.133 | [5] 0.199 | [7] 0.055 | [19] 0.002 | [13] 0.001 | [9] 0.091 | [20] 0.007

NBDY, A0A0U1RRE5
inactive: [12] 0.112 | [15] -0.262 | [16] 0.094 | [17] -0.026 | [3] -0.005 | [4] 0 | [5] 0.047 | [18] 0.187 | [7] -0.067 | [19] 0.449 | [13] -0.137 | [8] 0.008 | [20] 0.22 | [10] 0.129 | [11] 0.021

NASP isoform 2 (UniProt P49321)
inactive: [3] 1.06

NAIP (UniProt Q13075)
inactive: [12] 0.019 | [15] -0.419 | [1] -0.306 | [17] -0.562 | [4] 0.142 | [18] 0.075 | [13] 0

NAGPA (UniProt Q9UK23)
inactive: [14] -0.028 | [15] -0.004 | [1] 0.054 | [16] -0.131 | [17] -0.067 | [3] -0.066 | [4] 0.002 | [5] -0.133 | [6] 0.213 | [7] -0.065 | [19] 0.071 | [8] 0.084 | [10] -0.084 | [11] -0.083
active: [18] 0.555
